Results published in PubChem BioAssay AID504648 (National Center for Advancing Translational Sciences (NCATS), 2011).
“And” between values parts separate entries of the source, which are not always exact repeats. Identical values can stand only once. The campaign covered roughly 390,000 compounds. About 610 (0.16%) were called active. This list was built around the results that the source calls inconclusive (neither active nor inactive); the mix of calls is not that of the screen. The call rests on the fitted dose curve; in most records, active means well fitted inhibition curve with a large enough effect; inconclusive means small, poorly fitted or top-dose-only effect, or effect the other way, or another doubt; inactive means no such curve, though single readings can be large or run the other way. Potencies of inconclusive entries are doubtful fits and often do not repeat.

Assay: Nrf2 qHTS screen for inhibitors: counterscreen for cytotoxicity
Settings: A549 ARE-Fluc cells, CellTiter-Fluor viability, 18-24 h; activity change, negative = cytotoxicity: at 46 µM (top of the series)
Summary of the method: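 A549 ARE_Fluc cells in 5% FBS OPTI-MEM were exposed to compounds in concentration-response for 18-24 h at 37 deg C. Viability was read by CellTiter-Fluor fluorescence (Ex 405/Em 525) after 30 min, before the luciferase read.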
On the % scale 0 is the no-effect control and ±100 the full control effect; potency means the concentration at half of the fitted maximal effect.

Row | SMILES | Potency | activity change, negative = cytotoxicity
1 | Cc1ccc(-n2c(O)c(C=Nc3cc(C)on3)c3ccccc3c2=O)c(C)c1 | inconclusive: 23.1 µM [falling, partial curve, poor fit] | –
2 | COc1ccc(C(=O)NCc2cc(C)nc3ccccc23)cc1 | inconclusive: 14.6 µM [falling, partial curve, poor fit] | –
3 | CCOc1ccc(Br)cc1C1C(C(=O)OC)=C(N)Oc2cc(N(C)C)ccc21 (centres undefined) | inconclusive: 23.1 µM [falling, partial curve, poor fit] | –
4 | Cc1[nH]nc(-c2ccc(O)c(C)c2O)c1-c1cnn(-c2ccccc2)c1 | inconclusive: 29.1 µM [falling, single point] | –
5 | COc1ccc(Nc2nc(NCCO)nc(N3CCCC3)n2)cc1 | inactive | –
6 | CCNc1ccc2c(Cl)cc(=O)oc2c1 | inconclusive: 20.6 µM [activator, single point] | –
7 | COc1ccccc1-c1cc2nc(C)c(CCC(=O)NCc3cccc(Cl)c3)c(C)n2n1 | inconclusive: 0.231 µM [activator, full curve, poor fit] | –
8 | COC(=O)c1ccccc1C(=O)N1CCC(CCC(=O)NC2CC2)CC1 | inactive | –
9 | O=C(NNC(=O)c1csc(-c2cnccc2C(F)(F)F)n1)c1ccc(C(F)(F)F)cc1 | inconclusive: 20.6 µM [falling, single point] | –
10 | COc1ccc(/C(N)=N/OC(=O)c2c(-c3ccccc3Cl)noc2C)cc1OC | inconclusive: 20.6 µM [falling, single point] | –
11 | CC1CCN(Cc2c(C(=O)N/N=C/c3ccc(C(F)(F)F)cc3)nnn2-c2nonc2N)CC1 | inconclusive: 20.6 µM [falling, single point] | –
12 | COc1ccc(C2=Nn3c(nnc3-c3ccccc3F)SC2)cc1OC1CCCC1 | inactive | –
13 | Cc1nc(-c2ccc(F)cc2)c(CC(=O)N(C)CC(=O)Nc2ccc(Cl)c(C(F)(F)F)c2)s1 | inconclusive: 25.9 µM [falling, single point] | –
14 | COC(=O)Nc1nc(C)c(C(=O)c2ccccc2)s1 | inconclusive: 20.6 µM [falling, single point] | –
15 | CCc1ccc(CNCc2c(C(=O)O)n(Cc3ccc(F)cc3Cl)c3cc(OC)ccc23)cc1 | inconclusive: 29.1 µM [falling, single point] | –
16 | COc1cc2c(cc1OC)-c1cc(NC3CCCC3)nc(=O)n1CC2 | inactive | –
17 | O=C(Nc1nnc(C2CC2)o1)c1ccc(S(=O)(=O)N2CCc3ccccc3C2)cc1 | inconclusive: 32.6 µM [falling, partial curve, poor fit] | –
18 | Cc1ccc(Nc2c(-c3ccccn3)nc3cccc(C)n23)cc1 | inconclusive: 11.6 µM [falling, partial curve] | –
19 | Cc1cccc2cc(CNCC3CCCO3)c(Cl)nc12 (centres undefined) | inconclusive: 5.8 µM [activator, partial curve, poor fit] | –
20 | COc1cc2c(cc1OC)CN(C(=O)CN1CCN(S(=O)(=O)c3ccccc3Br)CC1)CC2 | inactive | –
21 | COc1ccc(C2CC(=O)Oc3c(C(CCN4CCCC(C)C4)c4ccc(N(C)C)cc4)c(OC)cc(OC)c32)cc1 (centres undefined) | inconclusive: 14.6 µM [falling, partial curve] and inconclusive: 23.1 µM [falling, partial curve] | –
22 | NCCCn1c(C(=O)c2ccc(Cl)cc2)c2ccc([N+](=O)[O-])cc2[n+]1[O-] | inconclusive: 23.1 µM [falling, single point] | –

Row | SMILES | Potency | activity change, negative = cytotoxicity
23 | Cc1ccccc1N(C(=O)c1snc(C(N)=O)c1N)C(C(=O)NCc1ccccc1)c1ccc(O)cc1 (centres undefined) | inconclusive: 29.1 µM [falling, single point] | –
24 | Cc1cc(C)c(C)c(C(=O)CSc2nnc(-c3ccc4[nH]c(C)c(C)c4c3)o2)c1C | inconclusive: 23.1 µM [falling, single point] | –
25 | CC1(C)NC(=O)N(CCCCOc2ccc3ccccc3c2Cl)C1=O | inconclusive: 29.1 µM [falling, single point] | –
26 | CN(Cc1ccc(Cl)c(Cl)c1)C(=O)c1cccc(S(=O)(=O)N2CCN(Cc3ccccc3)CC2)c1 | inactive | –
27 | COc1ccccc1CNC(=O)COc1ccc(C)nc1[N+](=O)[O-] | inconclusive: 16.4 µM [activator, partial curve] | –
28 | N#C/C(=C/c1cn(-c2ccccc2)nc1-c1cccc(OCc2ccc(F)cc2)c1)C(=O)NCCCn1ccnc1 | inconclusive: 29.1 µM [falling, single point] | –
29 | CCc1ccc(OCC(=O)N/N=C/c2cc([N+](=O)[O-])ccc2N2CCOCC2)cc1 | inconclusive: 32.6 µM [falling, single point] | –
30 | CCOc1ccc(N2C(=O)/C(=C/c3cc(OC)c(OC)c(OC)c3)N(CC(=O)OC)C2=S)cc1 | inconclusive: 18.4 µM [falling, single point] | –
31 | CCOC(=O)c1cc(-c2ccc(F)cc2)n(CCC(=O)NCCc2ccc(C)cc2)c1C | inconclusive: 29.1 µM [falling, single point] | –
32 | Cc1ccc(NC(=S)N2C3CCCC2CC(NC(=O)C2CC2)C3)cc1C (centres undefined) | inconclusive: 29.1 µM [falling, single point] | –
33 | O=C(C1=C(O)C(=O)N(c2nccs2)C1c1ccccc1)c1cc2ccccc2o1 (centres undefined) | inconclusive: 29.1 µM [falling, single point] | –
34 | Fc1ccc(-c2noc3ncnc(NCC4CCN(Cc5ccc(Cl)cc5)CC4)c23)cc1 | inconclusive: 23.1 µM [falling, partial curve, poor fit] | –
35 | Cc1nc2ccc(-c3nc4ccccc4o3)cc2[nH]1 | inactive | –
36 | O=c1c(Cl)c(NCC2CCCO2)cnn1C12CC3CC(CC(C3)C1)C2 (centres undefined) | inconclusive: 1.3 µM [activator, full curve] | –
37 | CN(C)c1ccc(CNC2CC(C)(C)NC(C)(C)C2)cc1 | inconclusive: 18.4 µM [falling, single point] | –
38 | COc1ccc(C(=O)Nc2ccccc2C(=O)NC(Cc2ccc(O)cc2)C(=O)NNC(=O)c2ccc(C)cc2)cc1 (centres undefined) | inconclusive: 20.6 µM [falling, partial curve, poor fit] | –
39 | Cc1ccc(Cl)cc1NC(=O)CCC(=O)NCc1ccco1 | inconclusive: 32.6 µM [activator, partial curve, poor fit] | –
40 | O=C(Nc1ccc(C2CC2(Cl)Cl)cc1)c1cccc([N+](=O)[O-])c1 (centres undefined) | inconclusive: 29.1 µM [falling, single point] | –
41 | Cc1cc2cc(C(c3nnnn3C3CCCC3)N(Cc3cccnc3)Cc3ccco3)c(=O)[nH]c2cc1C (centres undefined) | inconclusive: 20.6 µM [falling, single point] | –
42 | Cc1ccccc1CN1C(=O)c2ccccc2S1(=O)=O | inactive | –
43 | Cc1[nH]n2c(=O)cc(C(C)(C)C)nc2c1-c1ccccc1 | inactive | –
44 | O=C(O)c1cc(NN=C2c3ccccc3-c3ccccc32)ccc1Cl | inconclusive: 23.1 µM [falling, partial curve, poor fit] | –

Row | SMILES | Potency | activity change, negative = cytotoxicity
45 | Cc1cccc(NS(=O)(=O)c2ccc3c(c2)CCN3C(=O)C2CCC2)c1 | inactive | –
46 | O=C(/C=C/c1ccco1)NC(=S)Nc1cccc(-c2nc3ccccc3s2)c1 | inactive | –
47 | O=c1cc(CO)oc(CN2CCCC2)c1O | inactive | –
48 | CCOCCCn1c(=N)c(C(=O)NCC2CCCO2)cc2c(=O)n3cccc(C)c3nc21 (centres undefined) | inconclusive: 11.6 µM [activator, partial curve] | –
49 | Nc1ccc(S(=O)(=O)Nc2ccnn2-c2ccccc2)cc1 | inconclusive: 23.1 µM [activator, partial curve, poor fit] | –
50 | CC(C)C(=O)Nc1ccc(-c2nc3cccnc3o2)cc1 | inactive | –
51 | COc1ccc2c(c1)NC(c1cccnc1)=NC(c1ccc(F)cc1)=N2 | inactive | –
52 | O=C(c1ccc(C(F)(F)F)cc1)N1CCC(=O)N(C(COCc2ccc(C(F)(F)F)cc2)Cc2ccccc2)CC1 (centres undefined) | inconclusive: 29.1 µM [falling, single point] | –
53 | NS(=O)(=O)c1ccc(NC(=O)CSc2nc3ccccc3n2-c2ccccc2)cc1 | inconclusive: 29.1 µM [falling, single point] | –
54 | Cc1ccc(-n2nnnc2C(Cl)(Cl)c2nnnn2-c2ccc(C)cc2)cc1 | inconclusive: 18.4 µM [falling, single point] | –
55 | O=C(CNC(=O)C1COc2ccccc2O1)N/N=C\c1ccccc1Cl (centres undefined) | inactive | –
56 | O=C(CSc1cn(CC(=O)N2CCCCC2)c2ccccc12)Nc1ccc(C(F)(F)F)cc1 | inactive | –
57 | O=C(CCCn1c(=S)[nH]c2ccc(Br)cc2c1=O)N1CCN(c2ccccn2)CC1 | inconclusive: 16.4 µM [falling, single point] | –
58 | COc1ccc(C(=O)NC(=S)NNC(=O)c2ccc(C)cc2)cc1 | inactive | –
59 | Cc1ccc(S(=O)(=O)/N=C(\N)Nc2nc(C)c3ccc(C)cc3n2)cc1 | – | inactive: -7.29% [at 1.84 µM]
60 | CCc1ccc(OCC(=O)NC(NC(=S)Nc2ccccc2C)C(Cl)(Cl)Cl)cc1 (centres undefined) | inconclusive: 29.1 µM [falling, single point] | –
61 | COc1ccc(-c2ccc(N(C)C)cc2)cc1[C@H]1[C@H]2C=CC[C@@H](C)[C@@H]2C(=O)N1Cc1ccccc1 | inactive | –
62 | Cc1nnc(SCC(=O)c2ccc(S(=O)(=O)N3CCOCC3)cc2)n1-c1ccccc1 | inconclusive: 7.31 µM [activator, partial curve, poor fit] | –
63 | COc1cc(CNCCN2CCOCC2)ccc1OCc1cccc(Cl)c1 | inactive | –
64 | COc1ccc(/C=C/C(=O)NC(=S)NNC(=O)c2cnccn2)cc1 | inconclusive: 20.6 µM [falling, single point] | –
